According to patent US20090098054A1:
These are yes or no findings as the source states them, for the method shown. Binding seen in cells or lysates may run through a third protein. Some binding calls cover weakened binding; strength is not graded here.

Sequences of proteins named here, by UniProt entry; tags and fusion partners are left off. A change or cut given only in a name is not applied to a line headed by its entry.
UniProt P15941: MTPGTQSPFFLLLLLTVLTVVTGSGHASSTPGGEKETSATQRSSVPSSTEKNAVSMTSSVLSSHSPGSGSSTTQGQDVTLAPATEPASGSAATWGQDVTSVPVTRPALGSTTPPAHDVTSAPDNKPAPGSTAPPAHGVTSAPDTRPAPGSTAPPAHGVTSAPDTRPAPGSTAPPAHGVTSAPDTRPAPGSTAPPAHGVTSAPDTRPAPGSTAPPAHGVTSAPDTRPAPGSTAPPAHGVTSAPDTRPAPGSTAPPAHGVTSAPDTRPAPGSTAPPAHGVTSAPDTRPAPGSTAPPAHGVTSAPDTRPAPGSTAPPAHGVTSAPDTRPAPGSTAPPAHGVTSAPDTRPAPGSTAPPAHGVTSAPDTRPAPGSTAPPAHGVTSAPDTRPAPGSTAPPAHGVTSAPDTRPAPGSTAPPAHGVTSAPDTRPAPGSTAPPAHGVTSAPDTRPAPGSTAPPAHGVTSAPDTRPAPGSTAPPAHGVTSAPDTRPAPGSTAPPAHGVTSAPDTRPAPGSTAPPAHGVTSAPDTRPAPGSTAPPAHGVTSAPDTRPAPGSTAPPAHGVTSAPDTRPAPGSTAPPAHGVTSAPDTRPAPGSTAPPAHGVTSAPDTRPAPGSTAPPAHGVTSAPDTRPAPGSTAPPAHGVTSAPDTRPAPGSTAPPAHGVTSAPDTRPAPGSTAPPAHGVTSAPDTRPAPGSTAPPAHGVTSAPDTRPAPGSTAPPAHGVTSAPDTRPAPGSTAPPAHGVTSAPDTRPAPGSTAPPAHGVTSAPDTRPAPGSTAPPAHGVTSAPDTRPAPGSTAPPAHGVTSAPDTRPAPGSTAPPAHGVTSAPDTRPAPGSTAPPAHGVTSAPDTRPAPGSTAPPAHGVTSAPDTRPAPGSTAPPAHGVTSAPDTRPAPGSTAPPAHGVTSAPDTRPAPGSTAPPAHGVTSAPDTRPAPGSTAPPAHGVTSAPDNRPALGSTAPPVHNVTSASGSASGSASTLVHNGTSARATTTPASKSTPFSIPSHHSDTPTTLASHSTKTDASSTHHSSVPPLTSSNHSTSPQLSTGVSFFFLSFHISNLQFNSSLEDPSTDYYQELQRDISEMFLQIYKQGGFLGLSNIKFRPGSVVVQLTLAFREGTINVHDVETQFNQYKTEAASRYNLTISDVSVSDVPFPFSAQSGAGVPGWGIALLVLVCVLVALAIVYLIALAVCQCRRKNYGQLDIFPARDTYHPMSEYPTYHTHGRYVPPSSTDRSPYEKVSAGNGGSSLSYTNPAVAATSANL
UniProt O43474: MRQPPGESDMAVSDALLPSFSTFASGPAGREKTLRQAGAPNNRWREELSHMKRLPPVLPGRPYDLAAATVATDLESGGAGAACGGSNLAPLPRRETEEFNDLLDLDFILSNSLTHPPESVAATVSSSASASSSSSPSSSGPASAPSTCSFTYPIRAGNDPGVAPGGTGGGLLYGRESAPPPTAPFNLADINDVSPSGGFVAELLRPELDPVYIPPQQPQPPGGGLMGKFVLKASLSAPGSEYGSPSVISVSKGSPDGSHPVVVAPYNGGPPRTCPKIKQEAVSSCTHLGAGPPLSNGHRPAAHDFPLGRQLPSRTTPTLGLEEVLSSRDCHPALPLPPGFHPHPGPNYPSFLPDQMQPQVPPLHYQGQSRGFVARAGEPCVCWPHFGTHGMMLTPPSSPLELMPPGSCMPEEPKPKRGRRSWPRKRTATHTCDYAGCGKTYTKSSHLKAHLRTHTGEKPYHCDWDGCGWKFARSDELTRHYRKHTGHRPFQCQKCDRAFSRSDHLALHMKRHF

Target: GST-MUC1-CD(1-72) (human) (UniProt P15941)
Assay: GST pull-down on glutathione beads, [35S]-labeled KLF4, autoradiography

binding: binds
Substance: [35S]-labeled KLF4 protein (from UniProt O43474 10-513)
